Measurements from the supplement of paper PMC6418307.
Single values of this set are uncertain.

System: primary mouse cortical neurons
Assay: cell health score (luciferase spike-in reads / total reads per well) (fraction); higher = fewer cellular reads, worse cell health / toxicity
Details: treatment time 24 h
[1] = 0.01 µM, sex of neuron culture: Female
[2] = 0.01 µM, sex of neuron culture: Male
[3] = 0.1 µM, sex of neuron culture: Female
[4] = 0.1 µM, sex of neuron culture: Male
[5] = 1 µM, sex of neuron culture: Female
[6] = 1 µM, sex of neuron culture: Male
[7] = 10 µM, sex of neuron culture: Female
[8] = 10 µM, sex of neuron culture: Male

Row | Structure (SMILES) | cell health score [1] | cell health score [2] | cell health score [3] | cell health score [4] | cell health score [5] | cell health score [6] | cell health score [7] | cell health score [8]
1 | CCNC(=O)NC(=O)/C(C#N)=N/OC [Cymoxanil] | 0.000649 | 0.000732 | 0.00086 | 0.000834 | 0.000903 | 0.000683 | 0.00112 | 0.000655
2 | CC1(C)C(C=C(Cl)Cl)C1C(=O)OC(C#N)c1cccc(Oc2ccccc2)c1 (configuration not stated) [Cypermethrin] | 0.000626 | 0.00118 | 0.000728 | 0.000922 | 0.001 | 0.000841 | 0.000722 | 0.00145
3 | CC(C1CC1)C(O)(Cn1cncn1)c1ccc(Cl)cc1 (configuration not stated) [Cyproconazole] | 0.00104 | 0.000749 | 0.0021 | 0.000756 | 0.000843 | 0.000675 | 0.00101 | 0.00074
4 | Cc1cc(C2CC2)nc(Nc2ccccc2)n1 [Cyprodinil] | 0.000665 | 0.00082 | 0.00103 | 0.000821 | 0.00122 | 0.000764 | 0.00103 | 0.000845
5 | Nc1nc(N)nc(NC2CC2)n1 [Cyromazine] | 0.000621 | 0.000907 | 0.000901 | 0.00107 | 0.000945 | 0.000601 | 0.00127 | 0.00158
6 | CCN(CC)C(=O)c1cccc(C)c1 [DEET] | 0.00052 | 0.000833 | 0.000817 | 0.000696 | 0.000686 | 0.000753 | 0.00113 | 0.00124
7 | O=[N+]([O-])c1cc2nc(O)c(O)nc2cc1[N+](=O)[O-] [DNQX] | 0.000552 | 0.000753 | 0.00135 | 0.000937 | 0.00113 | 0.000404 | 0.00124 | 0.00332
8 | CN(C)NC(=O)CCC(=O)O [Daminozide] | 0.000641 | 0.000743 | 0.00135 | 0.00267 | 0.000996 | 0.000568 | 0.0013 | 0.000496
9 | CN1CSC(=S)N(C)C1 [Dazomet] | 0.000505 | 0.000751 | 0.000722 | 0.000735 | 0.00103 | 0.000572 | 0.00113 | 0.000937
10 | CCNc1nc(N)nc(Cl)n1 [Deisopropylatrazine] | 0.000617 | 0.00117 | 0.000658 | 0.000693 | 0.000656 | 0.000856 | 0.000697 | 0.000561
11 | CCOP(=S)(OCC)Oc1cc(C)nc(C(C)C)n1 [Diazinon] | 0.000543 | 0.000578 | 0.00072 | 0.000592 | 0.00116 | 0.000479 | 0.00133 | 0.000575
12 | CCOP(=O)(OCC)Oc1cc(C)nc(C(C)C)n1 [Diazoxon] | 0.000701 | 0.000691 | 0.000898 | 0.00118 | 0.000964 | 0.000855 | 0.00128 | 0.000799
13 | CCCCOC(=O)c1ccccc1C(=O)OCCCC [Dibutyl phthalate] | 0.000485 | 0.000647 | 0.000628 | 0.00104 | 0.00117 | 0.000464 | 0.000919 | 0.000535
14 | COc1c(Cl)ccc(Cl)c1C(=O)O [Dicamba] | 0.00039 | 0.000752 | 0.000852 | 0.000732 | 0.000922 | 0.000363 | 0.00136 | 0.00121
15 | N#Cc1c(Cl)cccc1Cl [Dichlobenil] | 0.000683 | 0.000806 | 0.00143 | 0.000863 | 0.00105 | 0.000703 | 0.00121 | 0.000404
16 | CC(Oc1ccc(Cl)cc1Cl)C(=O)O (configuration not stated) [Dichlorprop] | 0.000488 | 0.000642 | 0.00104 | 0.000762 | 0.000968 | 0.000611 | 0.00124 | 0.000607
17 | COP(=O)(OC)OC=C(Cl)Cl [Dichlorvos] | 0.000541 | 0.00086 | 0.000613 | 0.000763 | 0.000724 | 0.000606 | 0.00135 | 0.000531
18 | COC(=O)C(C)Oc1ccc(Oc2ccc(Cl)cc2Cl)cc1 (configuration not stated) [Diclofop-methyl] | 0.000522 | 0.000883 | 0.000582 | 0.000881 | 0.000635 | 0.000435 | 0.000836 | 0.000702
19 | Nc1c(Cl)cc([N+](=O)[O-])cc1Cl [Dicloran] | 0.00053 | 0.000754 | 0.000754 | 0.000838 | 0.001 | 0.000726 | 0.00126 | 0.000774
20 | CCOc1nc(F)cc2nc(S(=O)(=O)Nc3c(Cl)cccc3Cl)nn12 [Diclosulam] | 0.000639 | 0.000783 | 0.000711 | 0.00114 | 0.00086 | 0.000753 | 0.00112 | 0.000893
21 | OC(c1ccc(Cl)cc1)(c1ccc(Cl)cc1)C(Cl)(Cl)Cl [Dicofol] | 0.000503 | 0.000848 | 0.000795 | 0.000947 | 0.000782 | 0.000642 | 0.0016 | 0.000773
22 | COP(=O)(OC)O/C(C)=C/C(=O)N(C)C [Dicrotophos] | 0.00064 | 0.000741 | 0.00104 | 0.000629 | 0.000986 | 0.000625 | 0.00103 | 0.000881
23 | CC1COC(Cn2cncn2)(c2ccc(Oc3ccc(Cl)cc3)cc2Cl)O1 (configuration not stated) [Difenoconazole] | 0.000603 | 0.000598 | 0.000733 | 0.000787 | 0.00063 | 0.000583 | 0.00107 | 0.000854
24 | Cn1c(-c2ccccc2)cc(-c2ccccc2)[n+]1C [Difenzoquat metilsulfate] | 0.000656 | 0.000668 | 0.000542 | 0.00073 | 0.00077 | 0.000522 | 0.00398 | 0.0012
25 | COCC(C)N(C(=O)CCl)c1c(C)csc1C (configuration not stated) [Dimethenamid] | 0.000574 | 0.00104 | 0.00168 | 0.00106 | 0.00117 | 0.00071 | 0.00133 | 0.00217
26 | CNC(=O)CSP(=S)(OC)OC [Dimethoate] | 0.000567 | 0.000586 | 0.000745 | 0.000712 | 0.000744 | 0.00056 | 0.000986 | 0.000351
27 | COc1ccc(C(=CC(=O)N2CCOCC2)c2ccc(Cl)cc2)cc1OC [Dimethomorph] | 0.000583 | 0.00121 | 0.000707 | 0.000947 | 0.000631 | 0.000487 | 0.000885 | 0.000387
28 | COC(=O)c1ccccc1C(=O)OC [Dimethyl phthalate] | 0.00063 | 0.00078 | 0.00143 | 0.000725 | 0.000463 | 0.000599 | 0.000799 | 0.000581
29 | CC(C)(C)C(O)/C(=C/c1ccc(Cl)cc1Cl)n1cncn1 (configuration not stated) [Diniconazole] | 0.000526 | 0.000624 | 0.00102 | 0.00105 | 0.000703 | 0.0004 | 0.0008 | 0.000713

3 compounds already listed, ordered by length of the SMILES, ascending.
Row | Structure (SMILES) | cell health score [1] | cell health score [2] | cell health score [3] | cell health score [4] | cell health score [5] | cell health score [6] | cell health score [7] | cell health score [8]
27 | COc1ccc(C(=CC(=O)N2CCOCC2)c2ccc(Cl)cc2)cc1OC [Dimethomorph] | 0.000583 | 0.00121 | 0.000707 | 0.000947 | 0.000631 | 0.000487 | 0.000885 | 0.000387
20 | CCOc1nc(F)cc2nc(S(=O)(=O)Nc3c(Cl)cccc3Cl)nn12 [Diclosulam] | 0.000639 | 0.000783 | 0.000711 | 0.00114 | 0.00086 | 0.000753 | 0.00112 | 0.000893
2 | CC1(C)C(C=C(Cl)Cl)C1C(=O)OC(C#N)c1cccc(Oc2ccccc2)c1 (configuration not stated) [Cypermethrin] | 0.000626 | 0.00118 | 0.000728 | 0.000922 | 0.001 | 0.000841 | 0.000722 | 0.00145
